From PMC9805450
These are yes or no findings as the source states them, for the method shown. In cells and extracts the contact can be indirect. Some binding calls cover weakened binding; strength is not graded here.

Sequences of proteins named here, by UniProt entry; tags and fusion partners are left off.
UniProt P09429: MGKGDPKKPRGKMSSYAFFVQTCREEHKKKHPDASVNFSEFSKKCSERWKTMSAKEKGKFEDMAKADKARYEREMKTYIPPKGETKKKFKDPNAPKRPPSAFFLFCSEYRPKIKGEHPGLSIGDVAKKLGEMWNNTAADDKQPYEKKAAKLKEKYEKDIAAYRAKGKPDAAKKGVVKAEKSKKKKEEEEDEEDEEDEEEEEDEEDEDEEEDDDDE
UniProt Q9NRC8: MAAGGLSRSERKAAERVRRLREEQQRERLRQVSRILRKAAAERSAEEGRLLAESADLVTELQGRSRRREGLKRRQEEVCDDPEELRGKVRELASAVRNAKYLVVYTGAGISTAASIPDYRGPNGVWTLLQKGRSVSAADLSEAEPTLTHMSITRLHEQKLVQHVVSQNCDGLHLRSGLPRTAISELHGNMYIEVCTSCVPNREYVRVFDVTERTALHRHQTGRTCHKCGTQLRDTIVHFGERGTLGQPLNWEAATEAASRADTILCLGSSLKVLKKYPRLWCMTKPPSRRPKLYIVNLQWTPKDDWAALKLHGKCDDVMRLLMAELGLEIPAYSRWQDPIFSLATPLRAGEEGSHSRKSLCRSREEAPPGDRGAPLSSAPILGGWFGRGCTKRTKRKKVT

Legend:
[1] = target: High-mobility group box 1 (HMGB1) (human (endogenous in HaCaT)) (UniProt P09429); assay: co-IP; Pierce crosslinking magnetic IP/Co-IP kit; antibody or control IgG cross-linked to protein A/G magnetic beads; keratinocyte lysate, 1 h at room temperature; Western blot; cells with or without IR, 1.0 uM RSV, siRNA against SIRT7
[2] = target: SIRT7 (human (endogenous in HaCaT)) (UniProt Q9NRC8); assay: as above

| binding [1] | binding [2] | Substance |
| --- | --- | --- |
| binds |  | SIRT7 (from UniProt Q9NRC8 1-400) (enzyme) |
|  | binds | High-mobility group box 1 (HMGB1) (from UniProt P09429 1-215) |
